Test results reported in the supplement of paper PMC3334620.
Over roughly 33,000 sequences, “E-score (-0.5 to 0.5)” has its median near -0.0014; the highest 2% begin near 0.25. The list shows a part of the results.

What follows are sequences tested against T1, Cad1 (UniProt P24813) (assay: PBM E-score (8-mer binding enrichment) (E-score (-0.5 to 0.5)); higher = stronger / more preferred TF binding). Details: protein concentration: 100 nM; construct: GST-full length.
T1 sequence: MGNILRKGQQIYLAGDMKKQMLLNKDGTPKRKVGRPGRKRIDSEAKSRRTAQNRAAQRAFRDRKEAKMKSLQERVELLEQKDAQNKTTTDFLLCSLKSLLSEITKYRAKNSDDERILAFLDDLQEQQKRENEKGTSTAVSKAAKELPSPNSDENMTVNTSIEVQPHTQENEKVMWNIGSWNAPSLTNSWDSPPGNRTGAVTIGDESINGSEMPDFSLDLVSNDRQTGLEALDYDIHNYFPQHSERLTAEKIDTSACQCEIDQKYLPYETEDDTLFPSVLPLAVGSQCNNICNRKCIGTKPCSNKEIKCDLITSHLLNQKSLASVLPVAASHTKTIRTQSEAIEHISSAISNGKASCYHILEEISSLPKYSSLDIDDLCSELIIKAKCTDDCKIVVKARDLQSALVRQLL
Description: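 Universal 'all 10-mer' protein binding microarrays (Agilent AMADID 015681) probed with GST-tagged S. cerevisiae TFs (full-length or DBD) made by in vitro transcription/translation (PURExpress), about 100-200 nM. Bound TF was detected with fluorescent anti-GST. Each ungapped 8-mer (which stands for itself and its reverse complement) is scored by the PBM enrichment score (E-score), a modified Wilcoxon-Mann-Whitney statistic from -0.5 to +0.5, computed with the Universal PBM Analysis Suite. Scale: above 0.35 generally sequence-specific binding.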
With AGGGGATA the “PBM E-score” value was -0.154. For ATAGCACA, the “PBM E-score” value was 0.029. For ACGGTTAC, the “PBM E-score” value was 0.0282. In the case of CGTAAACG, the “PBM E-score” value is reported as -0.0817. With CTTGGGAC the “PBM E-score” value was -0.0745. ATGATATA was tested, and the “PBM E-score” value was -0.027. In the case of CTACTCCC, the “PBM E-score” value is reported as 0.0213. With AGGTGTAT the “PBM E-score” value was 0.0309. For AAACGGCC, the “PBM E-score” value was 0.0711. With CGGGTTGA the “PBM E-score” value was -0.0422. With CCTGGAAA the “PBM E-score” value was -0.0814. For CCTTCGCA, the “PBM E-score” value was -0.206. With GTGGAGAA the “PBM E-score” value was 0.0656. TACGCGTA was tested, and the “PBM E-score” value was 0.114. GTGATGCA was tested, and the “PBM E-score” value was 0.147. In the case of ACTACGAA, the “PBM E-score” value is reported as 0.0932. In the case of GTTCCCTA, the “PBM E-score” value is reported as -0.0845. In the case of GCTACCTA, the “PBM E-score” value is reported as 0.0857. In the case of ACATCCGT, the “PBM E-score” value is reported as 0.0223. With ATGGCTGG the “PBM E-score” value was -0.224. For ATCAAGGC, the “PBM E-score” value was 0.038. With CCGGGGTC the “PBM E-score” value was -0.102. With GATCACCA the “PBM E-score” value was 0.163. In the case of ACGCAACA, the “PBM E-score” value is reported as -0.0161. With CACCAGCA the “PBM E-score” value was -0.0515. CTCAGCAC was tested, and the “PBM E-score” value was 0.0326. In the case of GGACTACA, the “PBM E-score” value is reported as -0.178. In the case of GCTGATAA, the “PBM E-score” value is reported as 0.161. CGTTCGAA was tested, and the “PBM E-score” value was 0.177. With AATGCAGA the “PBM E-score” value was 0.0276. CCCCTCGC was tested, and the “PBM E-score” value was -0.202. In the case of CATAGATC, the “PBM E-score” value is reported as -0.0563. CGGAAAAC was tested, and the “PBM E-score” value was 0.221. In the case of CACTCCCA, the “PBM E-score” value is reported as -0.11. AAACTACG was tested, and the “PBM E-score” value was -0.0126. With AACTAAAA the “PBM E-score” value was 0.133. For TGGTGTAA, the “PBM E-score” value was -0.0084. With ATTACAAT the “PBM E-score” value was 0.104. For ATTCGTCG, the “PBM E-score” value was 0.19. With AACGTATA the “PBM E-score” value was 0.0823. For CGCATGAG, the “PBM E-score” value was -0.038. With CGATAATA the “PBM E-score” value was 0.198. In the case of TAAATTTA, the “PBM E-score” value is reported as 0.154. For AACGTCCG, the “PBM E-score” value was 0.048. For GATCACTA, the “PBM E-score” value was 0.0452. With TCTTGTCA the “PBM E-score” value was -0.035. With CGTCCGTC the “PBM E-score” value was -0.27. With AGTCCGCA the “PBM E-score” value was -0.0617. In the case of ACAAAAGA, the “PBM E-score” value is reported as 0.129. GAGCGGTA was tested, and the “PBM E-score” value was -0.0937. With CTTCGTCC the “PBM E-score” value was -0.255. In the case of AACCATCT, the “PBM E-score” value is reported as -0.138. For AGTTTAGG, the “PBM E-score” value was -0.0189. With CACGATGC the “PBM E-score” value was -0.0719. With ATGGGTAC the “PBM E-score” value was -0.076. With TAAAGCGA the “PBM E-score” value was 0.162. In the case of ACCCGTCC, the “PBM E-score” value is reported as -0.224. For CTGTGCCC, the “PBM E-score” value was -0.148. In the case of AGTGTTCA, the “PBM E-score” value is reported as 0.112. For GAGGAGAC, the “PBM E-score” value was -0.364. In the case of AAGCGCGC, the “PBM E-score” value is reported as 0.276. ACGTGCTG was tested, and the “PBM E-score” value was 0.109. In the case of GAAACCAA, the “PBM E-score” value is reported as -0.0638. For CCTCGATC, the “PBM E-score” value was 0.0502. For CGATACGC, the “PBM E-score” value was 0.0432. With TCCTAGAA the “PBM E-score” value was -0.0867. With ATAGGGCC the “PBM E-score” value was -0.0957. TCCGGGCA was tested, and the “PBM E-score” value was 0.00134. For CCGAGTTC, the “PBM E-score” value was 0.194. GACACAAC was tested, and the “PBM E-score” value was -0.137. With AATGGGGA the “PBM E-score” value was -0.0925. For GTCACCAA, the “PBM E-score” value was -0.138. TGGGGGAA was tested, and the “PBM E-score” value was -0.265. With CCACGGTA the “PBM E-score” value was -0.0167. For ACGCGCTG, the “PBM E-score” value was 0.0982. For AAGAGTTA, the “PBM E-score” value was -0.0746. With AATGGGCG the “PBM E-score” value was -0.216. In the case of CGAGCCTA, the “PBM E-score” value is reported as -0.00061. AAACAGTA was tested, and the “PBM E-score” value was 0.0141. In the case of GCATATGA, the “PBM E-score” value is reported as 0.118. For CATACCGC, the “PBM E-score” value was 0.0641. In the case of CCTTTAGC, the “PBM E-score” value is reported as -0.0626. For ACCGATCC, the “PBM E-score” value was -0.0178. In the case of CTGCACGA, the “PBM E-score” value is reported as 0.00658. With AAACGTTT the “PBM E-score” value was 0.00653. In the case of AGCTCGTG, the “PBM E-score” value is reported as 0.0269. In the case of GCCTCCAC, the “PBM E-score” value is reported as -0.139. For CCGCAGTC, the “PBM E-score” value was -0.0294. CCTTACAG was tested, and the “PBM E-score” value was -0.0126. With CTTTTATA the “PBM E-score” value was -0.0788. In the case of TACAACCA, the “PBM E-score” value is reported as 0.0846. With ACGAATCC the “PBM E-score” value was 0.13. In the case of AGCTCTCC, the “PBM E-score” value is reported as -0.212. In the case of CAGTAACA, the “PBM E-score” value is reported as 0.0833. CCAAGCCC was tested, and the “PBM E-score” value was -0.182. For GTTGCGGA, the “PBM E-score” value was -0.00763. For TTGATCAA, the “PBM E-score” value was 0.187. ACGGACGA was tested, and the “PBM E-score” value was 0.119. With TAACCTGA the “PBM E-score” value was -0.148. ATGTTTTA was tested, and the “PBM E-score” value was 0.0134. AGCATCTG was tested, and the “PBM E-score” value was -0.0254. AGAGAGCC was tested, and the “PBM E-score” value was -0.371. For CAAAATGC, the “PBM E-score” value was 0.0501. In the case of AGCCTGTC, the “PBM E-score” value is reported as -0.12. With AATATGGC the “PBM E-score” value was 0.0624. AGTGCACA was tested, and the “PBM E-score” value was -0.0428. AGGGTTAT was tested, and the “PBM E-score” value was 0.057. CCATGAGA was tested, and the “PBM E-score” value was -0.0668. With GCTATGTA the “PBM E-score” value was -0.0635.
